Data as given in PubChem BioAssay AID686938 (Drosophila RNAi Screening Center, 2013).
The screen tested about 23,000 reagents; below is an unselected part of those with a known target gene and a result. In the full data, 75 (0.33%) got an active call. 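Raw plate signals without normalisation; calls rest on plate z-scores that were not deposited; ratio present for only 364 wells.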 Unmarked entries are inactive. The numbers tell different reagents against one gene apart. Names joined by + are all predicted targets of the reagent. Not given: the dose of the treatment.

- Aim: 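Looking for CRAC channel components and the factors controlling them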 (primary screen)
- System: Drosophila S2R+ cells
- Knock-down reagent: long dsRNA against Drosophila genes, about 0.25 µg dsRNA per well, roughly 10,000 cells
- Time to read-out: 5 days of knock-down before the calcium assay
- Challenge: thapsigargin (SERCA pump blocker) to empty calcium stores; entry signal taken 4 min after adding it
- Read-out: 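Duplicate raw fluo-4 intensities per well from a plate reader, at rest and four minutes after thapsigargin emptied calcium stores; entry-to-rest ratio filled for only some wells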
- Scale: calcium entry signal: higher = stronger calcium signal after store depletion; entry to resting ratio: higher = more calcium entry relative to resting level; resting calcium signal: higher = higher resting calcium signal
- Active means: 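Hit if the duplicate-averaged plate z-score for entry over resting signal is under −3; wells with weak total dye signal (Fmax z < −2) or more than 5 off-targets removed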
- Meaning of the calls: active = strongly reduced calcium entry; inactive = no strong reduction

For b6, the values are calcium entry signal, replicate 1 (fluorescence units) = 3.30e7; calcium entry signal, replicate 2 (fluorescence units) = 4.60e7; entry to resting ratio 2; resting calcium signal, replicate 1 (fluorescence units) = 1.67e7; resting calcium signal, replicate 2 (fluorescence units) = 1.78e7.
For ZC3H3, the entry reads calcium entry signal, replicate 1 (fluorescence units) = 1.73e7 (active); calcium entry signal, replicate 2 (fluorescence units) = 2.41e7; resting calcium signal, replicate 1 (fluorescence units) = 1.12e7; resting calcium signal, replicate 2 (fluorescence units) = 1.49e7.
Depletion of sli #1 resulted in: calcium entry signal, replicate 1 (fluorescence units) = 3.30e7; calcium entry signal, replicate 2 (fluorescence units) = 3.24e7; resting calcium signal, replicate 1 (fluorescence units) = 1.39e7; resting calcium signal, replicate 2 (fluorescence units) = 1.49e7.
Silencing of sli #2 resulted in: calcium entry signal, replicate 1 (fluorescence units) = 4.68e7; calcium entry signal, replicate 2 (fluorescence units) = 4.04e7; resting calcium signal, replicate 1 (fluorescence units) = 2.24e7; resting calcium signal, replicate 2 (fluorescence units) = 1.80e7.
CG7747 scored calcium entry signal, replicate 1 (fluorescence units) = 3.76e7; calcium entry signal, replicate 2 (fluorescence units) = 3.49e7; resting calcium signal, replicate 1 (fluorescence units) = 1.70e7; resting calcium signal, replicate 2 (fluorescence units) = 1.68e7.
Against CG31606, the values are calcium entry signal, replicate 1 (fluorescence units) = 3.51e7; calcium entry signal, replicate 2 (fluorescence units) = 4.60e7; resting calcium signal, replicate 1 (fluorescence units) = 1.63e7; resting calcium signal, replicate 2 (fluorescence units) = 1.91e7.
tut scored calcium entry signal, replicate 1 (fluorescence units) = 1.96e7; calcium entry signal, replicate 2 (fluorescence units) = 2.81e7; resting calcium signal, replicate 1 (fluorescence units) = 1.13e7; resting calcium signal, replicate 2 (fluorescence units) = 1.23e7.
After knock-down of Smyd4-3 the results were calcium entry signal, replicate 1 (fluorescence units) = 2.37e7; calcium entry signal, replicate 2 (fluorescence units) = 3.03e7; resting calcium signal, replicate 1 (fluorescence units) = 1.13e7; resting calcium signal, replicate 2 (fluorescence units) = 1.37e7.
CG8892 showed calcium entry signal, replicate 1 (fluorescence units) = 3.90e7; resting calcium signal, replicate 1 (fluorescence units) = 2.05e7.
Knock-down of Jon74E gave: calcium entry signal, replicate 1 (fluorescence units) = 4.87e7; calcium entry signal, replicate 2 (fluorescence units) = 7.97e7; resting calcium signal, replicate 1 (fluorescence units) = 2.40e7; resting calcium signal, replicate 2 (fluorescence units) = 3.01e7.
beat-Va scored calcium entry signal, replicate 1 (fluorescence units) = 3.88e7; calcium entry signal, replicate 2 (fluorescence units) = 2.92e7; resting calcium signal, replicate 1 (fluorescence units) = 1.82e7; resting calcium signal, replicate 2 (fluorescence units) = 1.45e7.
With knock-down of Mob3, the record shows calcium entry signal, replicate 1 (fluorescence units) = 2.93e7; calcium entry signal, replicate 2 (fluorescence units) = 3.19e7; resting calcium signal, replicate 1 (fluorescence units) = 1.36e7; resting calcium signal, replicate 2 (fluorescence units) = 1.36e7.
Depletion of Traf-like gave: calcium entry signal, replicate 1 (fluorescence units) = 3.86e7; calcium entry signal, replicate 2 (fluorescence units) = 4.32e7; resting calcium signal, replicate 1 (fluorescence units) = 1.82e7; resting calcium signal, replicate 2 (fluorescence units) = 1.96e7.
CG7714 gave calcium entry signal, replicate 1 (fluorescence units) = 3.26e7; calcium entry signal, replicate 2 (fluorescence units) = 3.46e7; resting calcium signal, replicate 1 (fluorescence units) = 5.87e7; resting calcium signal, replicate 2 (fluorescence units) = 1.60e7.
After knock-down of Obp56c #1, the record shows calcium entry signal, replicate 1 (fluorescence units) = 5.51e7; calcium entry signal, replicate 2 (fluorescence units) = 4.84e7; resting calcium signal, replicate 1 (fluorescence units) = 2.32e7; resting calcium signal, replicate 2 (fluorescence units) = 2.51e7.
Depletion of Obp56c #2 gave: calcium entry signal, replicate 1 (fluorescence units) = 3.65e7; calcium entry signal, replicate 2 (fluorescence units) = 6.39e7; resting calcium signal, replicate 1 (fluorescence units) = 1.83e7; resting calcium signal, replicate 2 (fluorescence units) = 3.38e7.
Against CG14662 + asRNA:CR43478 the deposit lists calcium entry signal, replicate 1 (fluorescence units) = 3.26e7; calcium entry signal, replicate 2 (fluorescence units) = 5.02e7; resting calcium signal, replicate 1 (fluorescence units) = 1.63e7; resting calcium signal, replicate 2 (fluorescence units) = 2.34e7.
Depletion of CG32202 resulted in: calcium entry signal, replicate 1 (fluorescence units) = 3.16e7; calcium entry signal, replicate 2 (fluorescence units) = 4.97e7; resting calcium signal, replicate 1 (fluorescence units) = 1.77e7; resting calcium signal, replicate 2 (fluorescence units) = 1.78e7.
CG14478 gave calcium entry signal, replicate 1 (fluorescence units) = 5.77e7; calcium entry signal, replicate 2 (fluorescence units) = 5.65e7; resting calcium signal, replicate 1 (fluorescence units) = 2.38e7; resting calcium signal, replicate 2 (fluorescence units) = 2.73e7.
CG10132 gave calcium entry signal, replicate 1 (fluorescence units) = 3.82e7; resting calcium signal, replicate 1 (fluorescence units) = 2.03e7.
Lim1 #1 gave calcium entry signal, replicate 1 (fluorescence units) = 3.19e7; calcium entry signal, replicate 2 (fluorescence units) = 3.37e7; resting calcium signal, replicate 1 (fluorescence units) = 1.36e7; resting calcium signal, replicate 2 (fluorescence units) = 1.48e7.
Depletion of Lim1 #2 gave: calcium entry signal, replicate 1 (fluorescence units) = 3.37e7; calcium entry signal, replicate 2 (fluorescence units) = 3.90e7; resting calcium signal, replicate 1 (fluorescence units) = 1.54e7; resting calcium signal, replicate 2 (fluorescence units) = 2.08e7.

Sorted by “calcium entry signal, replicate 1 (fluorescence units)” (highest first): some entries from above
Traf-like: calcium entry signal, replicate 1 (fluorescence units) = 3.86e7; calcium entry signal, replicate 2 (fluorescence units) = 4.32e7; resting calcium signal, replicate 1 (fluorescence units) = 1.82e7; resting calcium signal, replicate 2 (fluorescence units) = 1.96e7
CG7714: calcium entry signal, replicate 1 (fluorescence units) = 3.26e7; calcium entry signal, replicate 2 (fluorescence units) = 3.46e7; resting calcium signal, replicate 1 (fluorescence units) = 5.87e7; resting calcium signal, replicate 2 (fluorescence units) = 1.60e7
